Experimental data taken from the supplement of paper PMC10849652.
This is one part of the list.

By UniProt entry, the sequences of proteins in these tests, tags left out. Where a name states a change or a piece, a line headed by the entry shows the natural chain unless it says otherwise.
UniProt Q8IV38: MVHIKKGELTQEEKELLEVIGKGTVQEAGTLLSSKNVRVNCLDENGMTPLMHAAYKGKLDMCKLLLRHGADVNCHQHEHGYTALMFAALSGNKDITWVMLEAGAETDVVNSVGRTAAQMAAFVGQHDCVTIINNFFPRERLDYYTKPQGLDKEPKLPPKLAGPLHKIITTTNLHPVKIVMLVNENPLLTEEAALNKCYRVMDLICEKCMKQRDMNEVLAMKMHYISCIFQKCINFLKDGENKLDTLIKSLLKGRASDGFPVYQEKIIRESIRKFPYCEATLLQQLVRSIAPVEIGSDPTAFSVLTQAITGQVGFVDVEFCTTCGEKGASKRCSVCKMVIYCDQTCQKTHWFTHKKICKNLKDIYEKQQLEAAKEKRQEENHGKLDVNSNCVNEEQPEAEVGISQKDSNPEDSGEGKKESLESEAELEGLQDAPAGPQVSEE
UniProt Q9BXS5: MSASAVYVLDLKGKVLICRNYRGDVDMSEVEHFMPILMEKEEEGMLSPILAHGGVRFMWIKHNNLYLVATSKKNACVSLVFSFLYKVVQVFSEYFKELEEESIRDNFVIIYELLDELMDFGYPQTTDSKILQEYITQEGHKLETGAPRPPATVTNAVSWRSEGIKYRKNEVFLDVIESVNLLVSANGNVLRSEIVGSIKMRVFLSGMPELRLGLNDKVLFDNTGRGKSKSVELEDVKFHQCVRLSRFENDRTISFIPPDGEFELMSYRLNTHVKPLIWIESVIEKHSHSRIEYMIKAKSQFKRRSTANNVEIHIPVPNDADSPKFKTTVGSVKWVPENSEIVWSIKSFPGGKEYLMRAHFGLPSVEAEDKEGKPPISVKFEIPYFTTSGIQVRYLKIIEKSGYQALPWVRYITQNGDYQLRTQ
UniProt P07355, whole entry, looked up: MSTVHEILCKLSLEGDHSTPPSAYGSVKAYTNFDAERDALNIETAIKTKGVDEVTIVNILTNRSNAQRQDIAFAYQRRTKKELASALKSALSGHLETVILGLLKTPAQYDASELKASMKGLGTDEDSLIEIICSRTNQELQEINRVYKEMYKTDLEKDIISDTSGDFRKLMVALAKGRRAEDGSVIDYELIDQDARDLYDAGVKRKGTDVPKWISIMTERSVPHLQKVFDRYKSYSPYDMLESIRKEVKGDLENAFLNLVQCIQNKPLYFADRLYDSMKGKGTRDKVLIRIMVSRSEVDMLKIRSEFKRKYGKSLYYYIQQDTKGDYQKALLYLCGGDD
UniProt P48444: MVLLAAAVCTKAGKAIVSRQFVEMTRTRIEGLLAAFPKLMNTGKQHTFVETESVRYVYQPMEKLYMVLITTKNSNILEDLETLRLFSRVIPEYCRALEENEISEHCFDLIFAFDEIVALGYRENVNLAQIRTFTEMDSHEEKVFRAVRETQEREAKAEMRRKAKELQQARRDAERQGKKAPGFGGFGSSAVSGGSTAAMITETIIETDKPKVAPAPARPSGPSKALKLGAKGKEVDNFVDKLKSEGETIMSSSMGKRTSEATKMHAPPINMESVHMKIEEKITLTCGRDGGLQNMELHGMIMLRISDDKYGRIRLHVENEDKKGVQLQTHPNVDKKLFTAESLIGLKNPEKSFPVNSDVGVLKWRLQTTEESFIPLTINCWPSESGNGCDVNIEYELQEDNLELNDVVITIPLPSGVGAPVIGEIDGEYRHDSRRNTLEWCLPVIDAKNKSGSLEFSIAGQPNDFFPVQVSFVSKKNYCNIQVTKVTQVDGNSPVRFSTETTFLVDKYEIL
UniProt Q06481, whole entry, looked up: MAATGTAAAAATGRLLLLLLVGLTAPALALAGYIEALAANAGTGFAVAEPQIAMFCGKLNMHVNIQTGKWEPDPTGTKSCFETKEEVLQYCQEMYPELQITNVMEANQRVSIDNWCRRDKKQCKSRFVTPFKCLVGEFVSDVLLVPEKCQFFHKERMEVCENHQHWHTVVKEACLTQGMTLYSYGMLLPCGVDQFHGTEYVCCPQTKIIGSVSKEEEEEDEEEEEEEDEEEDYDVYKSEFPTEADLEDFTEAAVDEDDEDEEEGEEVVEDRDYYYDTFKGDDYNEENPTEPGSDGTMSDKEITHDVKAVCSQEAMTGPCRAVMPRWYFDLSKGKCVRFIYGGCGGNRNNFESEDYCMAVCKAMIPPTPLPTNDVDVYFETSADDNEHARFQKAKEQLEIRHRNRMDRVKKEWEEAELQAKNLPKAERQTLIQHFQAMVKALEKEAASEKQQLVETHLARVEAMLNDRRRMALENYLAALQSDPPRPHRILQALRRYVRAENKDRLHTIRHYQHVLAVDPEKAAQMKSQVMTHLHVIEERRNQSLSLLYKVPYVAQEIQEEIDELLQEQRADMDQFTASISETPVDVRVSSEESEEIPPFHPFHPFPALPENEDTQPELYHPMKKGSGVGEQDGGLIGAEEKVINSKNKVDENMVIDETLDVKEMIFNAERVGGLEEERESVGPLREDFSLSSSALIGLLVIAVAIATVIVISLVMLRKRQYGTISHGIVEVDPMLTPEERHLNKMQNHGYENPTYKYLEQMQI
UniProt P39687: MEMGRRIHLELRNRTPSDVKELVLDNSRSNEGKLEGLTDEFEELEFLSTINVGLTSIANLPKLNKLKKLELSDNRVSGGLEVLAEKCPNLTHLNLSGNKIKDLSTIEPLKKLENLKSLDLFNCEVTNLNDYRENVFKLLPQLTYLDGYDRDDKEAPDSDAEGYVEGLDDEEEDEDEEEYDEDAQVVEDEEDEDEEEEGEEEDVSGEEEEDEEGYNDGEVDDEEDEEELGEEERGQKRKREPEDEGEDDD
UniProt Q9HDC9: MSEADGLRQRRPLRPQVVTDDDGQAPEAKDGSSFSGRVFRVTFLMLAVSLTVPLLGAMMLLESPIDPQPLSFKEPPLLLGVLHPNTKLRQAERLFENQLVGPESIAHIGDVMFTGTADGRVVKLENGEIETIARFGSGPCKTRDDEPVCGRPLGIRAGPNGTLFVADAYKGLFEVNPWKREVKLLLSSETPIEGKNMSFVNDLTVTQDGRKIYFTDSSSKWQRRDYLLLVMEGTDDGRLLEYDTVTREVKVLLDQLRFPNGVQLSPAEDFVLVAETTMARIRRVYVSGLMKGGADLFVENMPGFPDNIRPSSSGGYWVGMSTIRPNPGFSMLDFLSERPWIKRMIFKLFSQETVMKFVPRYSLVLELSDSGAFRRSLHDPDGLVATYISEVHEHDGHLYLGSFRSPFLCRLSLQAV
UniProt O60306: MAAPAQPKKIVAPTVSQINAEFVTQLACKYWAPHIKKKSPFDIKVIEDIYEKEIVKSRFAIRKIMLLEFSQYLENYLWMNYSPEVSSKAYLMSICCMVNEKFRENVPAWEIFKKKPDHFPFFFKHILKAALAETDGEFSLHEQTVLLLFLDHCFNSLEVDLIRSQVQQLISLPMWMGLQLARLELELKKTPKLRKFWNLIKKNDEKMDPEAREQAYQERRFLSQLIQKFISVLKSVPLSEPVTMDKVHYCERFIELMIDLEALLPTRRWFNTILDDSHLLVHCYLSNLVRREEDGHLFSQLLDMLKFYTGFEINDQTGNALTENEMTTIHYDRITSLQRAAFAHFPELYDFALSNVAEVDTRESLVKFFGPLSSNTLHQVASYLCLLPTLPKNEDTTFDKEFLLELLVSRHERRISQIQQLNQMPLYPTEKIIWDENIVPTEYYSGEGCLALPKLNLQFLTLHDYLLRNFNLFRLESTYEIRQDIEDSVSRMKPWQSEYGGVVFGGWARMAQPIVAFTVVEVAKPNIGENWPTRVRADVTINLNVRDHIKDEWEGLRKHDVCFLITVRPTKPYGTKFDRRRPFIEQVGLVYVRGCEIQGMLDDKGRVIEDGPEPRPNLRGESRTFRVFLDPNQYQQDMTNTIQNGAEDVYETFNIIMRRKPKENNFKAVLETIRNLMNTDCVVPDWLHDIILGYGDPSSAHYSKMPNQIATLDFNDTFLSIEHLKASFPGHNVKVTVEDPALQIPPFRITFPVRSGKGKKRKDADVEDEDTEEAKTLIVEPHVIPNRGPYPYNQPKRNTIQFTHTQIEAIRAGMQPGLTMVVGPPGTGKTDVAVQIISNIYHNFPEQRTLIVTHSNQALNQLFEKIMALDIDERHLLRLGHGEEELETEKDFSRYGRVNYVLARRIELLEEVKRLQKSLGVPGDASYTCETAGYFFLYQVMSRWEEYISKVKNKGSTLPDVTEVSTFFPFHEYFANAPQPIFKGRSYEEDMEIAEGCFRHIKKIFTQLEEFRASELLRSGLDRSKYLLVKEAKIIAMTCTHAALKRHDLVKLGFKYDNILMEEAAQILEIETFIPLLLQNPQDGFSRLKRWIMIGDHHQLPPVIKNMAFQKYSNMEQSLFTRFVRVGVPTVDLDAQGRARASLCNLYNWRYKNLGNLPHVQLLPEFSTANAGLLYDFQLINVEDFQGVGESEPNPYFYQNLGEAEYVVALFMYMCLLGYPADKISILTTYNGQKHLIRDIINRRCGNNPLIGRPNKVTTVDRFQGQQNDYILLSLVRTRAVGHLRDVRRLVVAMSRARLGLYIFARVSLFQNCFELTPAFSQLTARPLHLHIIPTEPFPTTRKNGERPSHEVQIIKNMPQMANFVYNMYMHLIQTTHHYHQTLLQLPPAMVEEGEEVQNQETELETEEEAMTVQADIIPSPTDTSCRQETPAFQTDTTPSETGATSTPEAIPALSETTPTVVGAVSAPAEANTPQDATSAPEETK
UniProt O95782: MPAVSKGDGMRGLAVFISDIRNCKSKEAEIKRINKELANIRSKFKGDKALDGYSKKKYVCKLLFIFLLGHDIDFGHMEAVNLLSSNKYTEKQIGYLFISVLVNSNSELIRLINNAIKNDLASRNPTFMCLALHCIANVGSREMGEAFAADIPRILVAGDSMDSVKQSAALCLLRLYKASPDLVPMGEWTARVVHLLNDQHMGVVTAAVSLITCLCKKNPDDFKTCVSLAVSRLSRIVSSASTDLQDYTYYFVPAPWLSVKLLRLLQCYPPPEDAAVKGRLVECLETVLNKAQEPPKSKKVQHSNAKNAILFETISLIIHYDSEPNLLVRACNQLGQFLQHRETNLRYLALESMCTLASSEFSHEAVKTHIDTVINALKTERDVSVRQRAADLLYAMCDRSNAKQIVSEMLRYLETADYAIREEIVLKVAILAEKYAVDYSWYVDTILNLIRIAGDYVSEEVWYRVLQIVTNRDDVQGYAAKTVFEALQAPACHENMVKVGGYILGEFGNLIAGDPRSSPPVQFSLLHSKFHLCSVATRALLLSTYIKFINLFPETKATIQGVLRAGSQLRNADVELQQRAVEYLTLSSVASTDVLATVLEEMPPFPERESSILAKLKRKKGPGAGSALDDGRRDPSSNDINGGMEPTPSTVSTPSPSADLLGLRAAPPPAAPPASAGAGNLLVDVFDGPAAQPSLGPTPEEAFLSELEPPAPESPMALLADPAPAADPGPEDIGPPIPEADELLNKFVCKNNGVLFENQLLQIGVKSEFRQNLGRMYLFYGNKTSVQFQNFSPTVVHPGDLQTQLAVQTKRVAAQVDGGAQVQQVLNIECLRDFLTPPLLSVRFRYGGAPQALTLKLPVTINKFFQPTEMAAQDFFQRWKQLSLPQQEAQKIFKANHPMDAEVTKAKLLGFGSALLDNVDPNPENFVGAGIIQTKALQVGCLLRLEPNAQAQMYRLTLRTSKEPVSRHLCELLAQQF
UniProt Q9Y2T2: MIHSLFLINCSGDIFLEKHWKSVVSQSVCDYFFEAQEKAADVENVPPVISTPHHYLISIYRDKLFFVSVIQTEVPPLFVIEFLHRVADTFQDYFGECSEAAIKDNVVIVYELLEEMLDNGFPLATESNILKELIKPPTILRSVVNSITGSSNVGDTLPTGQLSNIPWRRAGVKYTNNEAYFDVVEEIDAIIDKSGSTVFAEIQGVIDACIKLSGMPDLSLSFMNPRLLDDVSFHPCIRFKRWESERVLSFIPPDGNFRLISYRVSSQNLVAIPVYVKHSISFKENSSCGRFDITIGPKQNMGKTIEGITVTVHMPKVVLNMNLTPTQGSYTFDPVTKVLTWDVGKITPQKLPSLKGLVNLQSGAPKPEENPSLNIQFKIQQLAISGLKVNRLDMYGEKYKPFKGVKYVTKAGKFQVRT
UniProt Q9BTT0: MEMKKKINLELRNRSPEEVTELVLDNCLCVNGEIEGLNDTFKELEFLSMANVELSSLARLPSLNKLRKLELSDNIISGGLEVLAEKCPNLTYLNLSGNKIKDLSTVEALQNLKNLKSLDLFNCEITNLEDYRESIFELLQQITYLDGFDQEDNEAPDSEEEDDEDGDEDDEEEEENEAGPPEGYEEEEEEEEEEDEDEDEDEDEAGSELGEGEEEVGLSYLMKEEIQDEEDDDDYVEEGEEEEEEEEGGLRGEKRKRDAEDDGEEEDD
UniProt Q96GX9: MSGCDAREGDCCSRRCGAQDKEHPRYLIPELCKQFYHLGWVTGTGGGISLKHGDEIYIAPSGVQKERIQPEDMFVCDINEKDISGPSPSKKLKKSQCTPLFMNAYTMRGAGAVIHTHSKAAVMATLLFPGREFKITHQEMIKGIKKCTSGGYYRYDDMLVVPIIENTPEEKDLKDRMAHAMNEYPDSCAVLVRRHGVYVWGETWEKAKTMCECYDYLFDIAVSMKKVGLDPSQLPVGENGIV

What was measured:
Assay in all cases: log2 fold change, soluble protein after heating vs DMSO (PISA); higher = thermal stabilisation; K562 cells, 10 uM, 30 min; active = over 0.2 and 3.5 SD of the protein, either way, in both replicates (recomputed)
[1] = compound: CC1=C(C=C(C=C1)NC(=O)C2=CC(=CC=C2)C(C)(C)C#N)NC3=CC4=C(C=C3)N=CN(C4=O)C
Method in brief: (§1)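 K562 cells at 2×10^6 cells/mL were treated for 30 min with 10 μM compound, and aliquots were heated for 3 min over 48°C-58°C before pooling. Extraction used PBS with 0.5% NP-40 at 4°C, and soluble protein was the supernatant after 21,000xg for 90 min, measured by TMTpro 16plex LC-MS/MS with channel sums equalised. Thermal stability values, relative to control samples and from duplicates, are log2 fold changes.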

[2] = compound: CC1=C(C=C(C=C1)NC(=O)C2=CC(=CC=C2)N(C)C)NC(=O)C3=CC=C(C=C3)O
Method in brief: as §1

[3] = compound: CC1=CC=C(C=C1)SC2=C3C=C(SC3=CN=C2)C(=O)N
Method in brief: as §1

[4] = compound: CC1=NC(=CC=C1)C2=C(N=C(N2)C(C)(C)C)C3=CC4=NC=CN=C4C=C3
Method in brief: as §1

[5] = compound: CCCCN(Cc1ccc(C(=O)NO)cc1)C(=O)Nc1ccccc1 [Nexturastat A]
Method in brief: as §1

[6] = compound: CCCS(=O)(=O)Nc1ccc(F)c(C(=O)c2c[nH]c3ncc(-c4ccc(Cl)cc4)cc23)c1F [vemurafenib]
Method in brief: as §1

[7] = compound: CCCS(=O)(=O)Nc1ccc(F)c(C(=O)c2c[nH]c3ncc(Cl)cc23)c1F
Method in brief: as §1

[8] = compound: CCCc1cc(C)[nH]c(=O)c1CNC(=O)c1cc(-c2ccnc(N3CCN(C)CC3)c2)cc2c1cnn2C(C)C
Method in brief: as §1

[9] = compound: CCN(CC)Cc1ccc2cc(COC(=O)Nc3ccc(C(=O)NO)cc3)ccc2c1 [givinostat]
Method in brief: as §1

[10] = compound: CCN(CCCOc1ccc2c(Nc3cc(CC(=O)Nc4cccc(F)c4)[nH]n3)ncnc2c1)CCOP(=O)(O)O [barasertib]
Method in brief: as §1

Measured: log2 fold change

ANKMY2 (UniProt Q8IV38)
inactive: [1] 0.032 | [2] -0.036 | [3] 0.024 | [4] 0.057 | [5] -0.068 | [6] 0.004 | [7] 0.073 | [8] 0.039 | [9] 0.019 | [10] 0.003

ARHGAP1 (UniProt Q07960)
inactive: [1] -0.024 | [2] -0.022 | [3] -0.009 | [4] 0.012 | [5] 0.03 | [6] 0.002 | [7] 0.052 | [8] -0.018 | [9] -0.014 | [10] 0.006

AP1M1 (UniProt Q9BXS5)
inactive: [1] 0.02 | [2] -0.037 | [3] -0.008 | [4] -0.003 | [5] 0.065 | [6] 0.005 | [7] 0.019 | [8] 0.04 | [9] 0.022 | [10] 0.02

ANXA2 isoform 2 (UniProt P07355)
inactive: [1] 0.088 | [2] -0.021 | [3] -0.025 | [4] 0.076 | [5] -0.086 | [6] 0.044 | [7] 0.022 | [8] 0.013 | [9] -0.027 | [10] 0.008

AP1AR (UniProt Q63HQ0)
inactive: [1] -0.117 | [2] 0.023 | [3] -0.071 | [4] -0.05 | [5] 0.048 | [6] 0.025 | [7] -0.025 | [8] -0.075 | [9] -0.112 | [10] 0.041

APOB (UniProt P04114)
inactive: [1] -0.039 | [2] 0.134 | [3] 0.146 | [4] 0.032 | [5] -0.049 | [6] -0.006 | [7] 0.095 | [9] 0.074 | [10] -0.012
active: [8] -0.853

ANKZF1 (UniProt Q9H8Y5)
inactive: [1] 0.011 | [2] 0 | [3] -0.055 | [4] -0.059 | [5] 0.399 | [6] -0.011 | [7] -0.042 | [8] 0.132 | [9] 0.195 | [10] 0.04

AP1G1 isoform 2 (UniProt O43747)
inactive: [1] 0.036 | [2] -0.035 | [3] 0.039 | [4] 0.016 | [5] 0.032 | [6] 0.093 | [7] 0.087 | [8] -0.004 | [9] -0.005 | [10] 0.055

ARCN1 (UniProt P48444)
inactive: [1] 0.001 | [2] -0.02 | [3] 0 | [4] 0.001 | [5] -0.025 | [6] 0.051 | [7] 0.033 | [8] -0.007 | [9] -0.009 | [10] 0.022

APLP2 (UniProt Q06481)
inactive: [1] 0.088 | [2] -0.043 | [3] -0.003 | [4] -0.009 | [5] -0.053 | [6] -0.033 | [7] 0.011 | [8] 0.018 | [9] -0.041 | [10] -0.04

ANKRD28 (UniProt O15084)
inactive: [1] 0.028 | [2] -0.013 | [3] -0.008 | [4] 0.057 | [5] 0.002 | [6] -0.003 | [7] 0.028 | [8] -0.006 | [9] -0.028 | [10] 0.005

AP2S1 (UniProt P53680)
inactive: [1] 0.009 | [2] -0.028 | [3] -0.036 | [4] 0.037 | [5] -0.038 | [6] 0.002 | [7] 0.03 | [8] 0.007 | [9] -0.015 | [10] -0.034

ANP32A (UniProt P39687)
inactive: [1] 0.076 | [2] 0.005 | [3] 0.002 | [4] 0.093 | [5] -0.155 | [6] 0.048 | [7] 0.012 | [8] -0.01 | [9] 0.002 | [10] 0.015

APMAP (UniProt Q9HDC9)
inactive: [1] 0.002 | [2] 0.018 | [3] 0.017 | [4] 0 | [5] -0.06 | [6] -0.029 | [7] -0.01 | [8] -0.059 | [9] -0.029 | [10] 0.002

ANXA6 (UniProt P08133)
inactive: [1] -0.001 | [2] -0.034 | [3] -0.018 | [4] 0.005 | [5] -0.038 | [6] 0.013 | [7] 0.004 | [8] -0.064 | [9] 0.03 | [10] 0.072

ANAPC5 (UniProt Q9UJX4)
inactive: [1] -0.027 | [2] 0.006 | [3] -0.005 | [4] -0.025 | [5] 0.085 | [6] -0.007 | [7] 0.002 | [8] 0.019 | [9] 0.011 | [10] 0.002

AQR (UniProt O60306)
inactive: [1] -0.131 | [2] -0.01 | [3] -0.001 | [4] -0.079 | [5] 0.067 | [6] -0.009 | [7] -0.049 | [8] 0.061 | [9] 0.158

ANK3 (UniProt Q12955)
inactive: [1] -0.109 | [2] -0.033 | [3] -0.03 | [4] -0.187 | [5] 0.044 | [6] 0.119 | [7] -0.018 | [8] -0.194 | [9] -0.018 | [10] 0.051

Quoted from the entries so far (two entries):
AQR (UniProt O60306)
inactive: [1] -0.131 | [2] -0.01 | [3] -0.001 | [4] -0.079 | [5] 0.067 | [6] -0.009 | [7] -0.049 | [8] 0.061 | [9] 0.158

ANK3 (UniProt Q12955)
inactive: [1] -0.109 | [2] -0.033 | [3] -0.03 | [4] -0.187 | [5] 0.044 | [6] 0.119 | [7] -0.018 | [8] -0.194 | [9] -0.018 | [10] 0.051

Additional records follow:

AP2A1 (UniProt O95782)
inactive: [1] 0.024 | [2] -0.016 | [3] 0.004 | [4] 0.084 | [5] 0.048 | [6] 0.009 | [7] 0.03 | [8] -0.003 | [9] 0.008 | [10] -0.028

APOBEC3D (UniProt Q96AK3)
inactive: [1] 0.022 | [2] 0.01 | [3] -0.05 | [4] 0 | [5] 0.177 | [6] -0.188 | [7] 0.057 | [8] 0.11 | [9] 0.06 | [10] -0.013

APAF1 (UniProt O14727)
inactive: [1] 0.023 | [2] 0.014 | [3] -0.003 | [4] -0.125 | [5] 0.056 | [6] -0.006 | [7] -0.068 | [8] -0.1
active: [9] 0.395

ARFGAP1 (UniProt Q8N6T3)
inactive: [1] -0.053 | [2] -0.168 | [3] 0.107 | [4] 0.034 | [5] 0.038 | [6] 0.085 | [7] 0.124 | [8] 0.016 | [9] 0.029 | [10] 0.1

AP3M1 (UniProt Q9Y2T2)
inactive: [1] 0.018 | [2] -0.063 | [3] -0.002 | [4] 0.032 | [5] -0.008 | [6] 0.041 | [7] 0.045 | [8] 0.027 | [9] 0.038 | [10] 0.071

ANP32E (UniProt Q9BTT0)
inactive: [1] 0.041 | [2] -0.098 | [3] 0.091 | [4] -0.02 | [5] -0.11 | [6] 0.091 | [7] 0.035 | [8] -0.001 | [9] 0.112 | [10] 0.076

APOOL (UniProt Q6UXV4)
inactive: [1] 0.032 | [2] 0.03 | [3] -0.009 | [4] 0.015 | [5] -0.031 | [6] -0.032 | [7] -0.014 | [8] -0.013 | [9] -0.006 | [10] -0.003

APOO (UniProt Q9BUR5)
inactive: [1] -0.032 | [2] 0.021 | [3] 0.037 | [4] 0.029 | [5] -0.081 | [6] -0.001 | [7] 0.024 | [8] -0.053 | [9] 0.019 | [10] 0.001

APIP (UniProt Q96GX9)
inactive: [1] 0.01 | [2] 0.007 | [3] 0.033 | [4] 0.014 | [5] -0.044 | [6] 0.01 | [7] -0.004 | [8] -0.021 | [9] 0.012 | [10] -0.041

ARG2 (UniProt P78540)
inactive: [1] -0.06 | [2] 0.004 | [3] 0.05 | [4] 0.008 | [5] -0.009 | [6] 0.009 | [7] -0.008 | [8] -0.026 | [9] 0.002 | [10] 0.009

ANK1 isoform 14 (UniProt P16157)
inactive: [1] 0.047 | [2] 0.089 | [3] -0.079 | [4] -0.136 | [5] 0.332 | [6] 0.033 | [7] -0.063 | [8] 0.107 | [9] 0.258 | [10] 0.061

ARFIP1 (UniProt P53367)
inactive: [1] -0.031 | [2] 0.042 | [3] 0.022 | [4] -0.006 | [5] -0.081 | [6] -0.026 | [7] 0.084 | [8] 0.045 | [9] 0.058 | [10] 0.046
